Reference: paper PMC11631767
These are yes or no findings as the source states them, for the method shown. Binding seen in cells or lysates may run through a third protein. Some binding calls cover weakened binding; strength is not graded here.

By UniProt entry, the sequences of proteins in these tests, tags left out.
UniProt Q07666: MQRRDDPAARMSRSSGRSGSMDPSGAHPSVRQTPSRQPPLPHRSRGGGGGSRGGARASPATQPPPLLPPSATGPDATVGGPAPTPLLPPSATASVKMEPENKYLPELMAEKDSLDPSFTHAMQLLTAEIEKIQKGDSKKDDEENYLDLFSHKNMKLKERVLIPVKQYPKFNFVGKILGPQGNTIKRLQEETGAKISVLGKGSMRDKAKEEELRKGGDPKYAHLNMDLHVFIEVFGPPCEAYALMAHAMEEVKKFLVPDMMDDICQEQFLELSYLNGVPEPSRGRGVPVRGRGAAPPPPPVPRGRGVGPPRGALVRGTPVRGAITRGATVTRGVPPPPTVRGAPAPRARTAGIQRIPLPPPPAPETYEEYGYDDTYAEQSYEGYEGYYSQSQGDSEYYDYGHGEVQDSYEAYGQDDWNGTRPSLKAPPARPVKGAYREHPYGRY
UniProt P62993: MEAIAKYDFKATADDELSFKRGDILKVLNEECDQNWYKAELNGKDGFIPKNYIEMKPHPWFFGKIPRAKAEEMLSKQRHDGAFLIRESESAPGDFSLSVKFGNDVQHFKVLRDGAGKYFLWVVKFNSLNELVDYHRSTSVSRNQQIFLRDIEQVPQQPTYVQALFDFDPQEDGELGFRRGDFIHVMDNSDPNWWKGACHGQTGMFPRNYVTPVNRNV

What was measured:
[1] = target: Src-Associated in Mitosis 68-kDa (SAM68) protein (human (endogenous in Beas2B)) (UniProt Q07666); experiment: co-IP; Sam68 immunoprecipitation from lysates of Beas2B cells, blot for Grb2; both endogenous
[2] = target: Src-Associated in Mitosis 68-kDa (SAM68) protein (human (endogenous in Beas2B)) (UniProt Q07666); experiment: condition: only cells treated with 1 μM YB-0158 for 1 h; co-IP; Sam68 immunoprecipitation from lysates of Beas2B cells treated with 1 μM YB-0158 for 1 h, blot for Grb2; both endogenous

binding [1]: binds
binding [2]: no binding
Substance: Grb2 (from UniProt P62993 1-217)
